From patent US20020165189 come the findings set out here.

Holding throughout (test): enzyme reaction in vitro
Data set [1] relates to dsRNase activity (T24 cytosolic or nuclear extract) (Homo sapiens). The note with it: protein in an extract.
Data set [2] addresses T1, RNase H (Escherichia coli) (UniProt P0A7Y4).
T1 sequence (looked up, limits assumed): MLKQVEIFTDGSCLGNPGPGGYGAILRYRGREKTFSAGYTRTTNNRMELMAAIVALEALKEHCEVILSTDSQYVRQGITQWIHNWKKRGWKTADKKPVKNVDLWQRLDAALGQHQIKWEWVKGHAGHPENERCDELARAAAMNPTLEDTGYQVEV
The following applies: purified recombinant protein.

For data set [3], the system named is cytosolic dsRNase (rat liver) (Rattus). The following applies: sense: 8-nt PO ribo gap with 2'-OMe PS wings; antisense: 2'-OMe PS wings, 8-nt ribo gap (PO or PS); requires Mg++; several sites in ribo gap; 37 C; 20 mM Tris pH 7.5, 20 mM KCl, 10 mM MgCl2; purified native protein; label: 32P 5' end of sense.
Data set [4] has as its system nuclear dsRNase (rat liver) (Rattus). The following applies: sense: 8-nt PO ribo gap with 2'-OMe PS wings; antisense: 2'-OMe PS wings, 8-nt ribo gap (PO or PS); requires Mg++; less active than cytosolic extract; 37 C; protein in an extract; label: 32P 5' end of ….

For some assays here: Negatives hold for the conditions tested. For some assays here: Protein sequences can lack the tags named with them. For some assays here: For at least one entry, the source does not settle the construct or the ends of the probe. For some assays here: The comparison behind a weaker result is the experiment's own reference, which may not be listed here.

Regarding “AAUGCAUGUCACAGGCGGGA / UCCCGCCUGUGACAUGCAUU [c-Raf RNA gapmer (SEQ 8):RNA duplex]”, the “activity on this sequence” value in data set [1] (antisense gapmer with 2'-OMe wings, SEQ 8 is printed 3'-5' in Table 1, T24 homogenate, much slower than comparable DNA gapmer, label: 32P on target) was “less active”. Turning to “CCACACCGACGGCGCCC / GGGCGCCGUCGGUGUGG [Ha-ras full oligodeoxynucleotide:RNA duplex]”, the “activity on this sequence” value in data set [2] (antisense strand all deoxy, label: 32P on RNA, DNA:RNA hybrid, variant of Ha-ras 9 RNA gapmer:RNA duplex) is listed as “active”. “CCGAAUGUGACCGCCUCCCG / CGGGAGGCGGUCACAUUCGG [c-Raf RNA gapmer (SEQ 4):RNA duplex]”: the “activity on this sequence” value in data set [1] (antisense gapmer with 2'-OMe wings, SEQ 4 is complementary when read 3'-5', T24 homogenate, no cleavage supported, label: 32P on target) is recorded as “not active”. As for “CCACACCGACGGCGCCC / GGGCGCCGUCGGUGUGG [Ha-ras 9 RNA gapmer with PO gap:RNA duplex]”, the “activity on this sequence” value in data set [1] (antisense: 2'-OMe PS wings, 9-nt 2'-OH gap with phosphodiester linkages, antisense strand cleaved in phosphodiester gap, label: 32P on antisense strand, variant of Ha-ras 9 RNA gapmer:RNA duplex) is “active”. On to “CCACACCGACGGCGCCC / GGGCGCCGUCGGUGUGG [Ha-ras 9 RNA gapmer:RNA duplex]”, for which the “activity on this sequence” value in data set [2] (antisense: 2'-OMe wings, 9-nt 2'-OH gap, PS throughout, sense unmodified RNA, not a substrate, label: 32P 5' end of sense RNA) is “not active”; in data set [1] (antisense: 2'-OMe wings, 9-nt 2'-OH gap, PS throughout, sense unmodified RNA, cleaved within RNA:RNA gap, preferred near 3' end of target, 37 C, nuclear extract comparable, label: 32P 5' end of sense RNA), “active”. As for “CCACACCGACGGCGCCC / GGGCGCCGUCGGUGUGG [Ha-ras 9 DNA gapmer:RNA duplex]”, the “activity on this sequence” value in data set [2] (antisense: wings flanking 9-nt deoxy gap, cleavage localized to DNA:RNA portion, label: 32P on RNA, variant of Ha-ras 9 RNA gapmer:RNA duplex) is “active”. Take “GGGCGCCGUCGGUGUGG / CCACACCGACGGCGCCC [Ha-ras dsRNase artificial substrate]”: the “activity on this sequence” value in data set [3] is “active”; in data set [4] it was “active”; in data set [1] (sense: 8-nt PO ribo gap with 2'-OMe PS wings, antisense: 2'-OMe PS wings, 8-nt ribo gap (PO or PS), T24 extract cleaved the substrate, label: 32P 5' end of sense), “active”. Take “UCAAUGGAGCACAUACAGGG / CCCUGUAUGUGCUCCAUUGA [c-Raf RNA gapmer (SEQ 6):RNA duplex]”: the “activity on this sequence” value in data set [1] (antisense gapmer with 2'-OMe wings, SEQ 6 is printed 3'-5' in Table 1, T24 homogenate, no cleavage supported, label: 32P on target) was “not active”.
